{
  "sequences": {"note": "By UniProt entry, the sequences of proteins in these tests, tags left out.", "UniProt O15372": "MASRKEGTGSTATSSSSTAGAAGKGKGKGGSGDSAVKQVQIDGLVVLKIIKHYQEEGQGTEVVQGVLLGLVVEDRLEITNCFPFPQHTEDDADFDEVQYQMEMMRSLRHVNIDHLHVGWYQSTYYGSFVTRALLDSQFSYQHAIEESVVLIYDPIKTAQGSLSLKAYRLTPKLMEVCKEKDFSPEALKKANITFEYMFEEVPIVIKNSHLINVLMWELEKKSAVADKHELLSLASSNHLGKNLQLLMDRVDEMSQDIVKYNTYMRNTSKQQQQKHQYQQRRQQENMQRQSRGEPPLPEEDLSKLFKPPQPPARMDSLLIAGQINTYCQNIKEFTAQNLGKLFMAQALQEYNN"},
  "source": "paper PMC10413709",
  "molecules": {"B1": {"name": "O-GlcNAc transferase (OGT), endogenous (protein, UniProt O15294 1-1046)", "chain": "MASSVGNVADSTEPTKRMLSFQGLAELAHREYQAGDFEAAERHCMQLWRQEPDNTGVLLLLSSIHFQCRRLDRSAHFSTLAIKQNPLLAEAYSNLGNVYKERGQLQEAIEHYRHALRLKPDFIDGYINLAAALVAAGDMEGAVQAYVSALQYNPDLYCVRSDLGNLLKALGRLEEAKACYLKAIETQPNFAVAWSNLGCVFNAQGEIWLAIHHFEKAVTLDPNFLDAYINLGNVLKEARIFDRAVAAYLRALSLSPNHAVVHGNLACVYYEQGLIDLAIDTYRRAIELQPHFPDAYCNLANALKEKGSVAEAEDCYNTALRLCPTHADSLNNLANIKREQGNIEEAVRLYRKALEVFPEFAAAHSNLASVLQQQGKLQEALMHYKEAIRISPTFADAYSNMGNTLKEMQDVQGALQCYTRAIQINPAFADAHSNLASIHKDSGNIPEAIASYRTALKLKPDFPDAYCNLAHCLQIVCDWTDYDERMKKLVSIVADQLEKNRLPSVHPHHSMLYPLSHGFRKAIAERHGNLCLDKINVLHKPPYEHPKDLKLSDGRLRVGYVSSDFGNHPTSHLMQSIPGMHNPDKFEVFCYALSPDDGTNFRVKVMAEANHFIDLSQIPCNGKAADRIHQDGIHILVNMNGYTKGARNELFALRPAPIQAMWLGYPGTSGALFMDYIITDQETSPAEVAEQYSEKLAYMPHTFFIGDHANMFPHLKKKAVIDFKSNGHIYDNRIVLNGIDLKAFLDSLPDVKIVKMKCPDGGDNADSSNTALNMPVIPMNTIAEAVIEMINRGQIQITINGFSISNGLATTQINNKAATGEEVPRTIIVTTRSQYGLPEDAIVYCNFNQLYKIDPSTLQMWANILKRVPNSVLWLLRFPAVGEPNIQQYAQNMGLPQNRIIFSPVAPKEEHVRRGQLADVCLDTPLCNGHTTGMDVLWAGTPMVTMPGETLASRVAASQLTCLGCLELIAKNRQEYEDIAVKLGTDLEYLKKVRGKVWKQRISSPLFNTKQYTMELERLYLQMWEHYAAGNKPDHMIKPVEVTESA"}},
  "key": {"Myc-OGT full-length": {"biological_target": "T1, Myc-OGT full-length (UniProt O15294)", "T1 sequence": "B1 chain", "assay": "co-IP; HEK293 cells transfected with 2 µg GFP-EIF3H together with Myc-OGT full-length or mutants; NP-40 lysis buffer; precipitated with Myc antibody, detected by GFP antibody"}, "[1]": {"biological_target": "eukaryotic translation initiation factor 3 subunit H (EIF3H), endogenous (human (endogenous in LM3)) (UniProt O15372)", "assay": "co-IP; endogenous proteins in LM3 cell lysate; Co-IP lysis buffer, precleared with rabbit IgG, antibody at 4 °C overnight, Protein A/G PLUS-Agarose beads"}},
  "note": "No constants are given. Whether binding was seen depends on the method and setting. In cells and extracts the contact can be indirect. Some entries that bind do so weakly or less than the wild type. For some assays here: Where a sequence is shown, tags or fusion partners need not be part of it.",
  "data": [
    {"molecule": "GFP-EIF3H full-length (from UniProt O15372 1-352)", "values": [
      {"measurement": "binding", "setting": "Myc-OGT full-length", "value": "binds"}
    ]},
    {"molecule": "B1", "values": [
      {"measurement": "binding", "setting": "[1]", "value": "binds"}
    ]}
  ]
}
